No constants are given. Whether binding was seen depends on the method and setting. Binding seen in cells or lysates may run through a third protein. These calls come from enrichment with a bait or labelling near it, and not all partners need be listed.
T1: CLPTM1L, bait of the mass spectrographic analysis in A549 cells (human) (UniProt Q96KA5)
T1 sequence: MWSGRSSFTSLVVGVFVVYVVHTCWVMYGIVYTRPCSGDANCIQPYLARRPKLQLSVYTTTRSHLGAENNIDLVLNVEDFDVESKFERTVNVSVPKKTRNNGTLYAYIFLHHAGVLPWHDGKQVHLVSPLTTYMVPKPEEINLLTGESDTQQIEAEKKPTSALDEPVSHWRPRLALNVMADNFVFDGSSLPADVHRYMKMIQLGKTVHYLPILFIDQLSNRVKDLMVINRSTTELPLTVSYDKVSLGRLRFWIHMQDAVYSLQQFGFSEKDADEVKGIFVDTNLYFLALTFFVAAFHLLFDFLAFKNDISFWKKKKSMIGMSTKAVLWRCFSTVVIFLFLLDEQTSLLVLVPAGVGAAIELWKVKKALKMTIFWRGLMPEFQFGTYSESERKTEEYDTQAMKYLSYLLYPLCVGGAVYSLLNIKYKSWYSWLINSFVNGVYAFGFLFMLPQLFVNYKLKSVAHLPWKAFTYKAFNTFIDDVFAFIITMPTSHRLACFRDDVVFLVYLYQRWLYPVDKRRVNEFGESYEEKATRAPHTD

By UniProt entry, the sequences of proteins in these tests, tags left out.
UniProt P28702: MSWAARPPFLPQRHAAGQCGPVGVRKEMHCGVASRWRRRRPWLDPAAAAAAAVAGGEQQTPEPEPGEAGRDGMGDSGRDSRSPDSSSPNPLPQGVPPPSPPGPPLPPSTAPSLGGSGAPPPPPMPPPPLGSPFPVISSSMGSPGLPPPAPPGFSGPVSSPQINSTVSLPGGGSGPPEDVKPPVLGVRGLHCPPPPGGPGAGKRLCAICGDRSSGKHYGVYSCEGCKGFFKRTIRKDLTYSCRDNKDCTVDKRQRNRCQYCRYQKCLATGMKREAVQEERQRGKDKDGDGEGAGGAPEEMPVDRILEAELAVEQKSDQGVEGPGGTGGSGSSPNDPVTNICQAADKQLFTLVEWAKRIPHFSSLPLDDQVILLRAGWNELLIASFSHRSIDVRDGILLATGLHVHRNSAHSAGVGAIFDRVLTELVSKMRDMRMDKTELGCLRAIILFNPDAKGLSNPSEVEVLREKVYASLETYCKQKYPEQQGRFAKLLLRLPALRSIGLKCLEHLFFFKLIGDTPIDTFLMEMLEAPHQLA
UniProt P19793: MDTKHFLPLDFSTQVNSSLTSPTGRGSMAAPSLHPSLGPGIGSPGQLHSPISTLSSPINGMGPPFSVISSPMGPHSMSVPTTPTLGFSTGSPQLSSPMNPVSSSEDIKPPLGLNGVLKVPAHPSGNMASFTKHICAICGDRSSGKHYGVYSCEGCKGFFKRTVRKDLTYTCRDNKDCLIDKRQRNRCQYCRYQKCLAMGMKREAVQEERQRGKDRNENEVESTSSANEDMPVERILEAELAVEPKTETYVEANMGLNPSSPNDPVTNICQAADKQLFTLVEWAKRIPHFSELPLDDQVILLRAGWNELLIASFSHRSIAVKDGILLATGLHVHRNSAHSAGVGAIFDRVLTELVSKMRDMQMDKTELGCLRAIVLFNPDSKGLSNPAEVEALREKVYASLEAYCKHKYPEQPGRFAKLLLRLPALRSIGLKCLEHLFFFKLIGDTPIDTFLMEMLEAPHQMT
UniProt Q92731: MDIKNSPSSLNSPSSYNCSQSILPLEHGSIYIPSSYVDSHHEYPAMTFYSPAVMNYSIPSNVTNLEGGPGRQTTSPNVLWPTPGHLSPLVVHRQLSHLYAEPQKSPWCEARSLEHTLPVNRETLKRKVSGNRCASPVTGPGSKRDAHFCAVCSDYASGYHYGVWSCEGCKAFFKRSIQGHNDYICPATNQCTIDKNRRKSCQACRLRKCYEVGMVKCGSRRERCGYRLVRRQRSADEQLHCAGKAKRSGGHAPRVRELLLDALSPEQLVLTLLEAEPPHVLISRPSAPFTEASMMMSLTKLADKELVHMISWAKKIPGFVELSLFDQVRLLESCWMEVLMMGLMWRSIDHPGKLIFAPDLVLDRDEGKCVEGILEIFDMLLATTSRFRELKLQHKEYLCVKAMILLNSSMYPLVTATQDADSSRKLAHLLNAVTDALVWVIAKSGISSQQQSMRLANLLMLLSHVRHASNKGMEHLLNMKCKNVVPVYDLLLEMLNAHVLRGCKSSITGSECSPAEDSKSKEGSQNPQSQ

B1: PPARα (protein, UniProt Q07869 1-468)
chain: MVDTESPLCPLSPLEAGDLESPLSEEFLQEMGNIQEISQSIGEDSSGSFGFTEYQYLGSCPGSDGSVITDTLSPASSPSSVTYPVVPGSVDESPSGALNIECRICGDKASGYHYGVHACEGCKGFFRRTIRLKLVYDKCDRSCKIQKKNRNKCQYCRFHKCLSVGMSHNAIRFGRMPRSEKAKLKAEILTCEHDIEDSETADLKSLAKRIYEAYLKNFNMNKVKARVILSGKASNNPPFVIHDMETLCMAEKTLVAKLVANGIQNKEAEVRIFHCCQCTSVETVTELTEFAKAIPGFANLDLNDQVTLLKYGVYEAIFAMLSSVMNKDGMLVAYGNGFITREFLKSLRKPFCDIMEPKFDFAMKFNALELDDSDISLFVAAIICCGDRPGLLNVGHIEKMQEGIVHVLRLHLQSNHPDDIFLFPKLLQKMADLRQLVTEHAQLVQIIKKTESDAALHPLLQEIYRDMY

Biological target: T1, CLPTM1L, bait of the mass spectrographic analysis in A549 cells (human)
Test: affinity purification with mass spectrometry; mass spectrographic analysis of CLPTM1L in A549 cells; how CLPTM1L was isolated is not told

binding, binds:
RXRβ (from UniProt P28702 1-533), RXRα (from UniProt P19793 1-462), Estrogen receptor β (ERβ) in A549 cells (from UniProt Q92731 1-530), B1

Source: paper PMC7499972
